This is an account of results in patent US20220074941A1, “HSP90 COMBINATION THERAPY” (Sloan-Kettering Institute for Cancer Research, priority 2011, published 2022).

For the series, the system named is Hsp90 complexes in K562 cell extract. Description: Nano-LC-MS/MS of PU-beads pull-downs. Format: binding. The note with it: for Matched Peptides by Fraction JA06 / Matched Peptides by Fraction JA13 / MAXIMUM matched peptides / Matched Peptides by Fraction JA02 / Matched Peptides by Fraction JA09 / Matched Peptides by Fraction JA01 / Matched Peptides by Fraction JA08 / Matched Peptides by Fraction JA03 / Matched Peptides by Fraction JA07 / Matched Peptides by Fraction JA14 / Matched Peptides by Fraction JA10 / Matched Peptides by Fraction JA04 / Matched Peptides by Fraction JA11 / Matched Peptides by Fraction JA05 / Matched Peptides by Fraction JA12: PU-beads pull-down; for Matched Peptides by Fraction JA06: Run1, gel size cut 40-60; for Matched Peptides by Fraction JA13: Run2, gel size cut 40-60; for MAXIMUM matched peptides: maximum over fractions JA01-JA14; for Total fmol: protein isolated in PU-beads pull-downs, Waters Xevo QTof MS; for Matched Peptides by Fraction JA02: Run1, gel size cut 150-200; for Matched Peptides by Fraction JA09: Run2, gel size cut 150-200; for Matched Peptides by Fraction JA01: Run1, gel size cut >200; for Matched Peptides by Fraction JA08: Run2, gel size cut >200; for Matched Peptides by Fraction JA03: Run1, gel size cut 110-150; for Matched Peptides by Fraction JA07: Run1, gel size cut <40; for Matched Peptides by Fraction JA14: Run2, gel size cut <40; for Matched Peptides by Fraction JA10: Run2, gel size cut 110-150; for Matched Peptides by Fraction JA04: Run1, gel size cut 80-110; for Matched Peptides by Fraction JA11: Run2, gel size cut 80-110; for Matched Peptides by Fraction JA05: Run1, gel size cut 60-80; for Matched Peptides by Fraction JA12: Run2, gel size cut 60-80. As to the method:
Protein cargo isolated from cell lysate with PU-beads or control-beads was subjected to proteomic analysis by nano liquid chromatography coupled to tandem mass spectrometry (nano LC-MS/MS). Initial protein identification was performed using the Mascot search engine, and was further evaluated using Scaffold Proteome Software (Tables 5a-d).
Lysates prepared as mentioned above were first pre-cleaned by incubation with control beads overnight at 4° C. […] Beads were washed with lysis buffer, proteins eluted by boiling in 2% SDS, separated on a denaturing gel and Coomassie stained according to manufacturer's procedure (Biorad). […] Analyses of the batch purified pools were done using a QSTAR-Elite hybrid quadrupole time-of-flight mass spectrometer (QTof MS) (AB/MDS Sciex), equipped with a nano spray ion source. Peptide mixtures (in 20 μL) are loaded onto a trapping guard column (0.3×5-mm PepMap C18 100 cartridge from LC Packings) using an Eksigent nano MDLC system (Eksigent Technologies, Inc) at a flow rate of 20 μL/min. […] Electrospray ionization (ESI) needle voltage was set at about 1800 V. The mass analyzer is operated in automatic, data-dependent MS/MS acquisition mode, with the threshold set to 10 counts per second of doubly or triply charged precursor ions selected for fragmentation scans. Survey scans of 0.25 sec are recorded from 400 to 1800 amu; up to 3 MS/MS scans are then collected sequentially for the selected precursor ions, recording from 100 to 1800 amu. The collision energy is automatically adjusted in accordance with the m/z value of the precursor ions selected for MS/MS. Selected precursor ions are excluded from repeated selection for 60 sec after the end of the corresponding fragmentation duty cycle. […] One missed tryptic cleavage site was allowed, precursor ion mass tolerance=0.4 Da fragment ion mass tolerance=0.4 Da, protein modifications were allowed for Met-oxide, Cys-acrylamide and N-terminal acetylation. MudPit scoring was typically applied with ‘require bold red’ activated, and using significance threshold score p<0.05. Unique peptide counts (or ‘spectral counts’) and percent sequence coverages for all identified proteins were exported to Scaffold Proteome Software (version 2_06_01, www.proteomesoftware.com) for further bioinformatic analysis (Table 5a). Using output from Mascot, Scaffold validates, organizes, and interprets mass spectrometry data, allowing more easily to manage large amounts of data, to compare samples, and to search for protein modifications.

For the substance “Serine-threonine kinase receptor-associated protein; STRAP”, the “Matched Peptides by Fraction JA06” value came out at 16, the “Matched Peptides by Fraction JA13” value is recorded as 10, the MAXIMUM matched peptides was 16 and the Total fmol was determined as 9.5433 fmol.
On to “Tyrosine-protein phosphatase non-receptor type 23; PTPN23”, for which the “Matched Peptides by Fraction JA02” value came to 10, the “Matched Peptides by Fraction JA09” value was 13, the MAXIMUM matched peptides amounted to 13 and the Total fmol is reported as 5.6692 fmol.
For the substance Talin-1; TLN-1, the “Matched Peptides by Fraction JA01” value came out at 19, the “Matched Peptides by Fraction JA08” value is 25, the MAXIMUM matched peptides came to 25 and the Total fmol was found to be 3.1856 fmol.
Regarding Protein-tyrosine kinase 2-beta; FAK-2, the “Matched Peptides by Fraction JA03” value was 4, the MAXIMUM matched peptides is given as 4 and the Total fmol was 1.3365 fmol.
As for “Probable cytosolic iron-sulfur protein assembly protein CIAO1”, the “Matched Peptides by Fraction JA06” value was 8, the “Matched Peptides by Fraction JA13” value was determined as 13, the MAXIMUM matched peptides is listed as 13 and the Total fmol is 15.5890 fmol.
“Serine/threonine-protein phosphatase 2A catalytic subunit alpha isoform”: the “Matched Peptides by Fraction JA07” value is 20, the “Matched Peptides by Fraction JA14” value is on record as 16, the MAXIMUM matched peptides is on record as 20 and the Total fmol is recorded as 63.3310 fmol.
On to Vinculin, for which the “Matched Peptides by Fraction JA03” value is listed as 35, the “Matched Peptides by Fraction JA10” value amounted to 46, the MAXIMUM matched peptides is 46 and the Total fmol came to 17.7700 fmol.
“Probable E3 ubiquitin-protein ligase makorin-2”: the “Matched Peptides by Fraction JA06” value was 11, the “Matched Peptides by Fraction JA13” value amounted to 12, the MAXIMUM matched peptides was determined as 12 and the Total fmol was determined as 7.3243 fmol.
Regarding Serine/threonine-protein kinase TBK1, the “Matched Peptides by Fraction JA04” value stood at 9, the “Matched Peptides by Fraction JA11” value is listed as 16, the MAXIMUM matched peptides was determined as 16 and the Total fmol is reported as 5.3258 fmol.
On to Protein KIAA1967 p30 DBC, for which the “Matched Peptides by Fraction JA03” value worked out at 19, the “Matched Peptides by Fraction JA10” value was 26, the MAXIMUM matched peptides stood at 26 and the Total fmol is recorded as 22.1394 fmol.
On to Casein kinase II subunit beta, for which the “Matched Peptides by Fraction JA07” value turned out to be 3, the “Matched Peptides by Fraction JA14” value stood at 5, the MAXIMUM matched peptides stood at 5 and the Total fmol came out at 9.0324 fmol.
Turning to Heat shock protein beta-1; Hsp27, the “Matched Peptides by Fraction JA07” value is reported as 24, the “Matched Peptides by Fraction JA14” value was 21, the MAXIMUM matched peptides is 24 and the Total fmol was found to be 162.0092 fmol.
In the case of Histone H1.2, the “Matched Peptides by Fraction JA07” value stood at 7, the “Matched Peptides by Fraction JA14” value is 6, the MAXIMUM matched peptides worked out at 7 and the Total fmol was 7.5569 fmol.
For “DNA-dependent protein kinase catalytic subunit”, the “Matched Peptides by Fraction JA02” value is given as 30, the “Matched Peptides by Fraction JA01” value came to 236, the “Matched Peptides by Fraction JA09” value worked out at 41 and the “Matched Peptides by Fraction JA08” value stood at 251. This substance also yielded an MAXIMUM matched peptides of 251 and a Total fmol of 71.4210 fmol.
For 182 kDa tankyrase-1-binding protein, the “Matched Peptides by Fraction JA01” value is 12, the “Matched Peptides by Fraction JA08” value is recorded as 22, the MAXIMUM matched peptides worked out at 22 and the Total fmol is listed as 7.9788 fmol.
Take Stress-70 protein; GRP75: the “Matched Peptides by Fraction JA05” value came to 41, the “Matched Peptides by Fraction JA12” value is on record as 38, the MAXIMUM matched peptides came out at 41 and the Total fmol is 31.2908 fmol.
For the substance Phosphatidylinositol 4-kinase alpha, the “Matched Peptides by Fraction JA02” value stood at 12, the “Matched Peptides by Fraction JA09” value was 18, the MAXIMUM matched peptides is recorded as 18 and the Total fmol came out at 5.5247 fmol.
With “Phosphoinositide 3-kinase regulatory subunit 4”, the “Matched Peptides by Fraction JA03” value amounted to 13, the “Matched Peptides by Fraction JA10” value stood at 14, the MAXIMUM matched peptides is recorded as 14 and the Total fmol was 6.7192 fmol.
Consider “Mitogen-activated protein kinase 9; JNK2”, for which the “Matched Peptides by Fraction JA06” value amounted to 12, the “Matched Peptides by Fraction JA05” value amounted to 7, the MAXIMUM matched peptides amounted to 12 and the Total fmol is 3.5130 fmol.
As to E3 ubiquitin-protein ligase UBR4, the “Matched Peptides by Fraction JA01” value was determined as 112, the “Matched Peptides by Fraction JA08” value is on record as 128, the MAXIMUM matched peptides came out at 128 and the Total fmol is 20.1396 fmol.
Consider “Mitogen-activated protein kinase 6; ERK3”, for which the “Matched Peptides by Fraction JA06” value turned out to be 9, the “Matched Peptides by Fraction JA13” value is recorded as 11, the MAXIMUM matched peptides turned out to be 11 and the Total fmol is 3.0471 fmol.
For the substance “Dedicator of cytokinesis protein 2; DOCK2”, the “Matched Peptides by Fraction JA02” value was found to be 5, the “Matched Peptides by Fraction JA09” value is given as 16, the MAXIMUM matched peptides came to 16 and the Total fmol was found to be 4.2624 fmol.
Turning to Heat shock-related 70 kDa protein 2, the “Matched Peptides by Fraction JA05” value is given as 37, the “Matched Peptides by Fraction JA12” value was determined as 45, the MAXIMUM matched peptides was 45 and the Total fmol stood at 7.7656 fmol.
Turning to “Signal transducer and activator of transcription 3”, the “Matched Peptides by Fraction JA04” value was 22, the “Matched Peptides by Fraction JA11” value came out at 24, the MAXIMUM matched peptides is listed as 24 and the Total fmol came out at 15.8176 fmol.
On to Stress-induced-phosphoprotein 1; HOP, for which the “Matched Peptides by Fraction JA05” value worked out at 68, the “Matched Peptides by Fraction JA12” value amounted to 72, the MAXIMUM matched peptides came to 72 and the Total fmol was 129.2074 fmol.
Take “Mitogen-activated protein kinase 3; ERK-1”: the “Matched Peptides by Fraction JA06” value worked out at 27, the “Matched Peptides by Fraction JA13” value was found to be 27, the MAXIMUM matched peptides is reported as 27 and the Total fmol is reported as 6.6438 fmol.
As for Heat shock protein HSP 90-beta, the “Matched Peptides by Fraction JA06” value was 55, the “Matched Peptides by Fraction JA05” value was 54, the “Matched Peptides by Fraction JA04” value was 260 and the “Matched Peptides by Fraction JA03” value turned out to be 11. Besides, the “Matched Peptides by Fraction JA02” value was determined as 5, the “Matched Peptides by Fraction JA07” value came out at 20, the “Matched Peptides by Fraction JA01” value is given as 14 and the “Matched Peptides by Fraction JA13” value was 51. For the same substance, the “Matched Peptides by Fraction JA12” value amounted to 57, the “Matched Peptides by Fraction JA11” value was 242, the “Matched Peptides by Fraction JA10” value turned out to be 24 and the “Matched Peptides by Fraction JA09” value was 5. Besides, the “Matched Peptides by Fraction JA14” value is 19, the “Matched Peptides by Fraction JA08” value worked out at 25, the MAXIMUM matched peptides is on record as 260 and the Total fmol is listed as 2708.8638 fmol.
As for Protein ALO17, the “Matched Peptides by Fraction JA01” value came to 22, the “Matched Peptides by Fraction JA08” value is listed as 34, the MAXIMUM matched peptides was determined as 34 and the Total fmol came out at 9.9440 fmol.
